Patent US20100068766A1, “COMPOSITION FOR CLEAVING AND/OR CONNECTING SINGLE STRAND DNA” (WASEDA UNIVERSITY, priority 2007, published 2010)
These are yes or no findings as the source states them, for the method shown. For some assays here: Binding seen in cells or lysates may run through a third protein. Some entries that bind do so weakly or less than the wild type.

T1: Rad51B protein (UniProt O15315)
T1 sequence (looked up): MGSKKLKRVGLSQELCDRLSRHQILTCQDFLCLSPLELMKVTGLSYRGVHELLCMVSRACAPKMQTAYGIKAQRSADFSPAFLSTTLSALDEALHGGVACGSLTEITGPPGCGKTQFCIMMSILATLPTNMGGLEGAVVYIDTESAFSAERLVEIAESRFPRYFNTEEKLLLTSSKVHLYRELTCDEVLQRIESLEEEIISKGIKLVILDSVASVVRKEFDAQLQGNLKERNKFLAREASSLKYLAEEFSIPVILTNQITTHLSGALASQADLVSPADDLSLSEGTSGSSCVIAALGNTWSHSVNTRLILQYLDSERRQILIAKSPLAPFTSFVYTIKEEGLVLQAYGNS

T2: human Ev1 protein (NCBI accession No. AAF21709) (human) (UniProt Q9UI08)
T2 sequence (looked up): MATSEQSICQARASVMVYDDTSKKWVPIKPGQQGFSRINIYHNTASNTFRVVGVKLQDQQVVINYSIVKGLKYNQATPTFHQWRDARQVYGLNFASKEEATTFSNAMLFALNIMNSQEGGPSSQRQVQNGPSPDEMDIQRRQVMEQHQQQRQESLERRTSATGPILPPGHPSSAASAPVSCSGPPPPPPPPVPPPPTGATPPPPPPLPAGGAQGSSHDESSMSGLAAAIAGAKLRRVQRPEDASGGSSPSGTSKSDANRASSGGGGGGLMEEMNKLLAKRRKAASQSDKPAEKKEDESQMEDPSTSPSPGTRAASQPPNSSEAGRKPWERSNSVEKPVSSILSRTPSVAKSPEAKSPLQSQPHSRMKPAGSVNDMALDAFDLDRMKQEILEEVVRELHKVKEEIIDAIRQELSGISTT

B1: human Ev1 protein (NCBI accession No. AAF21709) (protein, UniProt Q9UI08-2 1-418, looked up)
chain: T2 sequence (looked up)
B2: Rad51B protein (protein, UniProt O15315-1 1-350, looked up)
chain: T1 sequence (looked up)

What was measured:
Rad51B protein [1] = molecular target: T1, Rad51B protein; assay: pull-down with protein-coupled Affi-Gel 10 beads, SDS-PAGE, Coomassie stain
Rad51B protein [2] = molecular target: T1, Rad51B protein; assay: pull-down with purified proteins on Affi-Gel 10 beads
Rad51B protein [3] = molecular target: T1, Rad51B protein; assay: pull-down, Rad51B coupled to Affi-Gel 10 beads, SDS-PAGE, Coomassie stain
Rad51B protein [4] = molecular target: T1, Rad51B protein; assay: pull-down, Rad51B coupled to Affi-Gel 10 beads, 10 µg Ev1, SDS-PAGE, Coomassie stain
[5] = molecular target: T2, human Ev1 protein (NCBI accession No. AAF21709) (human); assay: pull-down, Ev1 coupled to Affi-Gel 10 beads, 10 µg Rad51B, SDS-PAGE, Coomassie stain

Binder	binding (Rad51B protein [1])	binding (Rad51B protein [2])	binding (Rad51B protein [3])	binding (Rad51B protein [4])	binding [5]
B1	binds	binds	binds	binds	
B2					binds
